Reference: patent US20200017862A1
No constants are given. Whether binding was seen depends on the method and setting. In cells and extracts the contact can be indirect. Some entries that bind do so weakly or less than the wild type. Where a sequence is shown, tags or fusion partners need not be part of it.

Amino acid sequences for entries named in this document (tags omitted).
UniProt P18248: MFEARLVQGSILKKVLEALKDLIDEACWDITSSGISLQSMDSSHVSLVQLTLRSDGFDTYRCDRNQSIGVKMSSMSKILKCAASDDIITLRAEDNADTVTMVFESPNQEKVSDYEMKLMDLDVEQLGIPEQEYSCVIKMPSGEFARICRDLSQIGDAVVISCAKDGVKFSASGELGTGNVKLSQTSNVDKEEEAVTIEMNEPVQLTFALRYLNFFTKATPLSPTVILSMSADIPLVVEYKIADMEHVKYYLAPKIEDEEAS

Assays:
[1] = target: PCNA, endogenous, in Xenopus egg extract (HSS) (Xenopus) (UniProt P18248); assay: GST pulldown from Xenopus HSS, immunoblot
[2] = target: WT His-tagged PCNA (recombinant Xenopus PCNA) (Xenopus) (UniProt P18248); assay: GST pulldown with purified proteins in interaction buffer, immunoblot

B1: GST-APE2 (recombinant GST-tagged Xenopus APE2) (enzyme, Xenopus laevis, UniProt Q6DDT4 1-517, looked up, not shown: a dimerising Fc or GST)
chain: MKIVSWNINGIRATRVGLKETLDSLDADIICLQETKVTRDLLDEPSAIVEGYNSYFSFSRVRSGYSGVATFCKSSTTPQAAEEGLSGVFCNRTGSVGCYGNTEQFLEEELQSLDQEGRAVLTQHRILNCEDKEETLTVINVYCPRADPEKPERKTYKLRFYHLLQTRAEAILQNGGHVIILGDVNTSHRPLDHCDPTDLETFEENPGRQWLNQFLGDPIPSQKGDSETVMPPSAGSGLFYDSFRYFHPTQKNAFTCWCSASGARQTNYGTRIDYILGNRELVESEFLDSVIMPEVEGSDHCPVKAFMKCQPIAANKCPPLCTKYLPEFAGRQQKLLQFLVKKENTLGNTTEESSELTGTPSFTEGADISTVRKRPSDKLNSTSKKKSKIVTKNGQGNLLSFFKPERQKLTMATECNPIEVPICKKEKTVQKDLQPATPAVKYNKPQTAFWKSLLKGPPPPPNCKGHSEPCVLRTVKKAGPNCGRQFYVCARPEGHSSNPQARCNFFLWLTKKAGCED
- binding [1]: binds
- binding [2]: binds
